In all, about 1,700 compounds were measured (“T2 sensor activation Q score (MG/GFP ratio z-score vs DMSO controls)”: median about 0.3, highest 2% from about 1.9 on). The list shows a part of the results.

The subject of this assay is ppGalNAc-T2 sensor. Description: T2 sensor activation Q score (MG/GFP ratio z-score vs DMSO controls) (SD units); higher = more sensor activation (inhibition of ppGalNAc-T2 glycosylation). To be noted: HEK293 sensor cells; 10 µM; 6 h. As to the method: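 Cells were treated with compound at 10 uM for 6 h, then MG/GFP ratio was read by flow cytometry (10,000 cells per well, duplicate wells). Q = (R - R_neg)/SD_neg relative to DMSO vehicle controls; the signal rises when the glycosyltransferase is inhibited.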
Turning to `Cc1ccc(-c2cc(C(F)(F)F)nn2-c2ccc(S(N)(=O)=O)cc2)cc1`, the “T2 sensor activation Q score” value was -2.3. Regarding `Oc1c(CN2CCN(c3ccccc3)CC2)cc(Br)c2cccnc12`, the “T2 sensor activation Q score” value stood at 0.4.

On to `CC(C)N(C(=O)c1cccc([N+](=O)[O-])c1)C(C)C`, for which the “T2 sensor activation Q score” value is -1.5. On to `CCC(C)(C)c1ccc(Oc2cccc(C(=O)O)c2)cc1`, for which the “T2 sensor activation Q score” value came out at 1.5.

On to `Oc1c(Cl)cc(Cl)cc1C1Nc2ccccc2-n2cccc21` (configuration not stated), for which the “T2 sensor activation Q score” value is -0.25.

Take `CC(C=CC1(O)C(C)=CC(=O)CC1(C)C)=CC(=O)O` (configuration not stated): the “T2 sensor activation Q score” value was -1.25. In the case of `Nc1ncnc2c1ncn2C1OC(CO)C(O)C1N` (configuration not stated), the “T2 sensor activation Q score” value is 0.2. As for `CCc1cccc2[nH]c3cc([N+](=O)[O-])ccc3c12`, the “T2 sensor activation Q score” value was -2.4. Turning to `CCC1=C(c2ccc(OC)cc2)CCC(C(=O)O)C1C` (configuration not stated), the “T2 sensor activation Q score” value was 1.15. Regarding `NC1=C(O)C(=O)C(c2ccccc2)O1` (configuration not stated), the “T2 sensor activation Q score” value came out at 1.65. `CC(C)COC(=O)NC1c2ccccc2Oc2ccccc21`: the “T2 sensor activation Q score” value is 0.95. In the case of `N#CC(c1ccccc1)C(C/C(=N\O)c1ccccc1)c1ccccc1` (configuration not stated), the “T2 sensor activation Q score” value is -0.8. To `CNC(=O)c1nn(C)c(=O)[nH]c1=O` belongs 0.2.

With `Cn1c(=S)c2[nH]c(SCCN3CCCC3)nc2n(C)c1=O`, the “T2 sensor activation Q score” value turned out to be 0.6. Turning to `Cc1cc(=O)[nH]c(N)n1`, the “T2 sensor activation Q score” value worked out at 0.6. For `C[C@]12CC[C@@H]3c4ccc(O)cc4C[C@@H](CCCCCCCCC[S+]([O-])CCCC(F)(F)C(F)(F)F)[C@H]3[C@@H]1CC[C@@H]2O` (some centres not stated), the “T2 sensor activation Q score” value was -1.55. Turning to `CCN(c1ccccc1)c1nc(Cl)nc2c1cnn2C`, the “T2 sensor activation Q score” value is 1.15. With `Nc1nc(=S)c2ncn(C3CCCC3)c2[nH]1`, the “T2 sensor activation Q score” value is -0.45. Consider `C#CC1(N2CCCCC2)CCCCC1`, for which the “T2 sensor activation Q score” value was 0.8. As for `CC(=O)OCC1OC(COC(C)=O)(c2ccc(C)cc2)C(OC(C)=O)C1OC(C)=O` (configuration not stated), the “T2 sensor activation Q score” value stood at 0.15.

Take `Nc1ccc(N=Nc2ccc(O)cc2)c(N)n1`: the “T2 sensor activation Q score” value came out at 1.4. To `CCOC(=O)c1ccc(Nc2sc(C(=O)c3cccc([N+](=O)[O-])c3)c(N)c2C#N)cc1` belongs -0.4; to `Cc1csc(N=Nc2ccc(N(C)C)cc2)[n+]1[O-]`, 0.4; to `C=CCNC(=S)N1CCN(c2ccccc2Cl)CC1`, 0.1.

As to `CCOP(=O)(OCC)/C(C#N)=C/c1ccc([N+](=O)[O-])cc1`, the “T2 sensor activation Q score” value is 2.3. Under `Nc1ncnc2c([C@@H]3O[C@H](CO)[C@@H](O)[C@H]3O)c[nH]c12` stands 0.

Take `c1ccc(-c2nnc3oc(-c4cccs4)nn23)cc1`: the “T2 sensor activation Q score” value is -1.05. Take `S=c1[nH]c2ccccc2c2ccccc12`: the “T2 sensor activation Q score” value came to 1.95. As for `O=C(CC1C=Cc2ccccc2N1C(=O)c1ccccc1)c1ccccc1` (configuration not stated), the “T2 sensor activation Q score” value was -0.45. Under `Cc1cc(=O)n2[nH]c(-c3ccc(C(C)(C)C)cc3)cc2n1` stands 0.15; under `CCc1nc(NC(C)(C)C)c2cnn(-c3ccccc3)c2n1`, -0.5; under `O=P(O)(O)C(O)(Cn1ccnc1)P(=O)(O)O`, -0.2. To `Nc1ccccc1Sc1cc(Cl)nnc1Cl` belongs -0.05; to `O=C(O)c1ccccc1C(=O)Nc1cccc([N+](=O)[O-])c1`, -1.25; to `CC(=O)Nc1ccc2cc3ccc(NC(C)=O)cc3nc2c1`, -0.95.

Turning to `O=C(CCBr)N1CCN(C(=O)CCBr)CC1`, the “T2 sensor activation Q score” value is -2.3.

Consider `Clc1c(Cl)c(Cl)c2n[nH]nc2c1Cl`, for which the “T2 sensor activation Q score” value worked out at 0.2. For `CNC(=O)c1ccc(N2C(=S)N(c3ccc(C#N)c(C(F)(F)F)c3)C(=O)C2(C)C)cc1F`, the “T2 sensor activation Q score” value is -1.45. Under `c1ccc2c(c1)nnn2-c1ccncc1` stands -0.1.

`Cc1nnsc1C(=O)NCc1c(F)cccc1Cl`: the “T2 sensor activation Q score” value was -0.3.

As for `NCC(=O)Nc1ccc(Cl)cc1C(=O)c1ccc[nH]1`, the “T2 sensor activation Q score” value is -1. Under `CCCCCCCCCC[C@H](C(=O)O)[C@]1(C(=O)O)CCC(=O)O1` stands -0.8; under `CCOc1ccc(/C=C2\CCc3ccccc3C2=O)cc1`, 0.5; under `O=C(O)c1cc(N2C(=O)C=CC2=O)cc(N2C(=O)C=CC2=O)c1`, 1.6. `Oc1ccc2c(ccc3[nH]cnc32)c1`: the “T2 sensor activation Q score” value is -0.05. To `CSc1ncc2[nH]c(C(O)c3ccccc3)nc2n1` (configuration not stated) belongs -0.45; to `CCOC(=O)Nc1ccc2nc(-c3cscn3)[nH]c2c1`, -0.45. In the case of `CCOC(=O)c1c[nH][nH]c1=O`, the “T2 sensor activation Q score” value is 1.9. As for `Oc1ccc(Cc2ccccc2Cl)c(O)c1`, the “T2 sensor activation Q score” value was determined as 1.95. For `c1ccc(-n2nnnc2-c2cccc3ccccc23)cc1`, the “T2 sensor activation Q score” value is 0.05.

As to `O=C(Nc1ccc(F)cc1)Oc1ccc[nH]c1=O`, the “T2 sensor activation Q score” value was -0.25. Under `Cn1c(=O)c2c(ncn2CCOC(=O)C(C)(C)Oc2ccc(Cl)cc2)n(C)c1=O` stands -1.4; under `O=c1cc(-c2ccc(Cl)cc2)[nH]c2ccccc12`, -0.25; under `Cc1c(Cc2ccccc2)[n+](=O)c2ccccc2n1[O-]`, -0.65. As for `Cc1ccc2c(c1)c1ccc3c(c1n2C)C(=O)C=CC3=O`, the “T2 sensor activation Q score” value is -0.85.

With `Cc1nc2ccc(Cl)cn2c1[N+](=O)[O-]`, the “T2 sensor activation Q score” value was 0.95. To `Cc1cc(C)n(C(N)=NC(=O)c2ccccc2)n1` belongs 1.3.

As for `Cc1ccc2c(c1)sc1nncn12`, the “T2 sensor activation Q score” value turned out to be 0.8. Turning to `Cc1cc(=O)c2c(o1)C(=O)c1occc1C2=O`, the “T2 sensor activation Q score” value was 1.35. `CN1CCC(=C2c3ccccc3C(O)c3ccccc32)CC1` (configuration not stated): the “T2 sensor activation Q score” value was 0.95.

With `Cn1nnc2c(C(N)=O)ncn2c1=O`, the “T2 sensor activation Q score” value is -1.3. Turning to `c1ccc2nc(NN=C3CCCCC3)ccc2c1`, the “T2 sensor activation Q score” value was -0.1.

(Values after the supplement of paper PMC5407854, “Inhibitor of ppGalNAc-T3-mediated O-glycosylation blocks cancer cell invasiveness and lowers FGF23 levels” (eLife, 2017).)
